Values from PubChem BioAssay AID1259280 (Sanger Institute, 2017)
Purpose: 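Kinome siRNA screen for partners that synergise with BYL719, cetuximab or trametinib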 (primary screen). Cell system: human SNU407 colorectal cancer cells. Reagents: siRNA pool against human genes. Challenge: anchor drugs BYL719 at 1 µM, cetuximab at 5 µg/ml or trametinib at 10 nM, or DMSO vehicle alone; exposure time not given. Measurement: 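Viability per well scaled to a non-targeting pool and averaged over replicates, with a robust z-score from controls and a synergy score per anchor drug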. Scale: viability z-score, no drug: higher = more cells survive the knock-down. Hit rule: 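Essential calls require a no-drug robust viability z-score under -3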. Calls: active = essential (knock-down alone kills cells); inactive = no change without drug.
This is one part, drawn at random, of 794 reagents. In the full data, 12 (1.5%) were called active. 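Calls cover knock-down without drug only; synergy scores stand apart, values above 0.15 being treated as synergy.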 Further read-outs or replicates are left out here. No sequences are given here. Not stated in the record: the amount of reagent, the time to read-out.

SCYL1 (GeneID 57410) [SID152146872] | viability z-score, no drug = 0.901; call = inactive
TAF1 (GeneID 6872) [SID56478970] | viability z-score, no drug = -0.617; call = inactive
RNASEL (GeneID 6041) [SID56478962] | viability z-score, no drug = -0.511; call = inactive
CERT1 (GeneID 10087) [SID56479254] | viability z-score, no drug = -0.354; call = inactive
DLG2 (GeneID 1740) [SID152155470] | viability z-score, no drug = -0.43; call = inactive
GRK3 (GeneID 157) [SID135620814] | viability z-score, no drug = 0.862; call = inactive
EPHB1 (GeneID 2047) [SID152152600] | viability z-score, no drug = -0.945; call = inactive
TTK (GeneID 7272) [SID56478775] | viability z-score, no drug = -0.943; call = inactive
MED24 (GeneID 9862) [SID152152726] | viability z-score, no drug = 0.812; call = inactive
GUCY2F (GeneID 2986) [SID152150427] | viability z-score, no drug = 0.901; call = inactive
DDR2 (GeneID 4921) [SID135620612] | viability z-score, no drug = 0.212; call = inactive
CHD4 (GeneID 1108) [SID152156048] | viability z-score, no drug = -3.23; call = active

Part of the list above, reformatted:
{"target gene": "GUCY2F (GeneID 2986)", "PubChem SID": "SID152150427", "viability z-score, no drug": 0.901, "call": "inactive"}
{"target gene": "DDR2 (GeneID 4921)", "PubChem SID": "SID135620612", "viability z-score, no drug": 0.212, "call": "inactive"}
